Experimental data from publication doi:10.1101/2022.12.30.522308 (bioRxiv, 2022).
No constants are given. Whether binding was seen depends on the method and setting. Some entries that bind do so weakly or less than the wild type.

Legend:
[1] = target: T1, extracellular domain of human IL-9 receptor α (hIL-9Rα) (human) (UniProt Q01113); assay: ITC
T1 sequence: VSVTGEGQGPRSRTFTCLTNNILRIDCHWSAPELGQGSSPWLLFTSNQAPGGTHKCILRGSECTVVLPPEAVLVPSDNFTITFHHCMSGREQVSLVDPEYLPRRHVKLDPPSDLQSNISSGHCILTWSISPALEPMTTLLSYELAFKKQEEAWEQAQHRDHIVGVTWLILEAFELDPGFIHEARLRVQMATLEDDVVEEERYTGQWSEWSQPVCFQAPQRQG

[2] = target: non-glycosylated binary hIL-9:hIL-9Rα complex (human) (UniProt P15248+Q01113); assay: SEC

- binding [1]: no binding
- binding [2]: binds weakly
B1: trimmed extracellular domain of human common gamma chain (hγc, residues 56-254), produced in Sf9 cells (receptor, UniProt P31785-1 56-254, looked up)
chain: PLPEVQCFVFNVEYMNCTWNSSSEPQPTNLTLHYWYKNSDNDKVQKCSHYLFSEEITSGCQLQKKEIHLYQTFVVQLQDPREPRRQATQMLKLQNLVIPWAPENLTLHKLSESQLELNWNNRFLNHCLEHLVQYRTDWDHSWTEQSVDYRHKFSLPSVDGQKRYTFRVRSRFNPLCGSAQHWSEWSHPIHWGSNTSKEN
